Data reported in patent publication EP4621409A1, “NOVEL ANTIVIRAL PEPTIDE” (Daehannupharm Co., Ltd., priority 2022, dated 2024).
Like-named read-outs stand apart in the source and are kept apart here. Part of at least one peptide drawing is inferred or uncertain, most often the ends. Some entries repeat one wording, which the source may state once for all of them. Some entries share one result that the patent states for a list of compounds. No end group written: not given here.

Key:
[1] = system: dengue virus; test: Antiviral efficacy against dengue virus, evaluation at specific concentrations (Vero cells, RT-qPCR); conditions: for Δ Ct: increase in Ct value compared to negative control; for Ct value: virus and peptide 37°C 1 hour, Vero cells, MOI 0.03, 2 days; for reduction of the amount of virus that infected the cells: compared to the negative control
[2] = Liposome leakage assay (6-carboxyfluorescein encapsulated liposomes); format: biochemical; conditions: peptide diluted to 500 nM mixed 1:1 with liposome solution (55 nm, POPC 20 µM); fluorescence for 20 minutes; FIGS. 3 to 25
[3] = system: SARS-CoV-2 virus
[4] = system: dengue virus; test: RNase digestion assay (micrococcal nuclease, RT-qPCR of viral RNA); format: biochemical; conditions: for Ct value: RT-qPCR of viral RNA after micrococcal nuclease treatment; for Δ Ct: increase in Ct value compared to negative control (N.C.); for destruction of the lipid membrane of the virus (viral RNA degraded by RNase): peptide solution 2 µM and 1 µM mixed 1:1 with virus, 37°C 1 hour, micrococcal nuclease
[5] = Liposome rupture, TIRF microscope measurement, liposomes with specific size (55 nm); format: biochemical; conditions: 100 nM peptide flowed at 150 µL/min; 55 nm liposomes; 25 minutes; FIGS. 26 to 29
[6] = system: dengue virus; conditions: for reduction of the amount of virus that infected the cells: compared to the negative control

DFWSKLVYFFAEIIRFLS [SP-143, DFWSKLVYFFAEIIRFLS]
Δ Ct ([1]; 30 nM peptide): 1.79 | Ct value ([1]; 30 nM peptide): 22.23 | Δ Ct ([1]; 60 nM peptide): 5.70 | Ct value ([1]; 60 nM peptide): 26.14 | reduction of the amount of virus that infected the cells [1]: reducing the amount of virus that infected the cells compared to the negative control | leakage of the fluorescent substance encapsulated in the liposome [2]: leaked out of the liposome | reduction of the level of cells infected by the virus [3]: reducing the level of cells infected by the virus

DKIVLFILSILEKIYNLL [SP-171, DKIVLFILSILEKIYNLL]
leakage of the fluorescent substance encapsulated in the liposome [2]: leaked out of the liposome | reduction of the level of cells infected by the virus [3]: reducing the level of cells infected by the virus

DVTRLLELILDVLAYIIS [SP-151, DVTRLLELILDVLAYIIS]
leakage of the fluorescent substance encapsulated in the liposome [2]: leaked out of the liposome | reduction of the level of cells infected by the virus [3]: reducing the level of cells infected by the virus

EGILSFILISLKDFLRVF [SP-189, EGILSFILISLKDFLRVF]
leakage of the fluorescent substance encapsulated in the liposome [2]: leaked out of the liposome | Ct value ([4]; peptide 500 nM): 24.36 | Δ Ct ([4]; peptide 500 nM): 0.68 | Ct value ([4]; peptide 1000 nM): 24.04 | Δ Ct ([4]; peptide 1000 nM): 0.36 | destruction of the lipid membrane of the virus (viral RNA degraded by RNase) [4]: destroyed the lipid membrane of the virus

ESLKNFWESLWKFFTHFF [SP-001, ESLKNFWESLWKFFTHFF]
destruction of the lipid membrane of liposomes (decrease in the fluorescence value) [5]: lipid membrane of the liposomes labeled with a fluorescent substance was destroyed | Ct value ([6]; Conc. 7.81 nM): 24.23 | Ct value ([6]; Conc. 15.63 nM): 25.10 | Ct value ([6]; Conc. 31.25 nM): 25.47 | Ct value ([6]; Conc. 62.50 nM): 26.44 | Ct value ([6]; Conc. 125.00 nM): 26.72 | Ct value ([6]; Conc. 250.00 nM): 38.67 | Ct value ([6]; Conc. 500.00 nM): 44.60 | Ct value ([6]; Conc. 1000.00 nM): 45.00 | reduction of the amount of virus that infected the cells [6]: reducing the amount of virus that infected the cells compared to the negative control | leakage of the fluorescent substance encapsulated in the liposome [2]: leaked out of the liposome

FSFWVWLDNIIDLVKKYI [SP-114, FSFWVWLDNIIDLVKKYI]
leakage of the fluorescent substance encapsulated in the liposome [2]: leaked out of the liposome | reduction of the level of cells infected by the virus [3]: reducing the level of cells infected by the virus

FTFWTWLEAILDLIKKHI [SP-116, FTFWTWLEAILDLIKKHI]
leakage of the fluorescent substance encapsulated in the liposome [2]: leaked out of the liposome | Ct value ([4]; peptide 500 nM): 27.98 | Δ Ct ([4]; peptide 500 nM): 4.10 | Ct value ([4]; peptide 1000 nM): 28.76 | Δ Ct ([4]; peptide 1000 nM): 4.87 | destruction of the lipid membrane of the virus (viral RNA degraded by RNase) [4]: destroyed the lipid membrane of the virus | reduction of the level of cells infected by the virus [3]: reducing the level of cells infected by the virus

GRWIDMLISRIFDIMLAF [SP-242, GRWIDMLISRIFDIMLAF]
leakage of the fluorescent substance encapsulated in the liposome [2]: leaked out of the liposome | Ct value ([4]; peptide 500 nM): 25.21 | Δ Ct ([4]; peptide 500 nM): 0.95 | Ct value ([4]; peptide 1000 nM): 26.11 | Δ Ct ([4]; peptide 1000 nM): 1.85 | destruction of the lipid membrane of the virus (viral RNA degraded by RNase) [4]: destroyed the lipid membrane of the virus

HTLLDFWRLVWEFGVKVI [SP-245, HTLLDFWRLVWEFGVKVI]
leakage of the fluorescent substance encapsulated in the liposome [2]: leaked out of the liposome | Ct value ([4]; peptide 500 nM): 24.63 | Δ Ct ([4]; peptide 500 nM): 1.10 | Ct value ([4]; peptide 1000 nM): 24.59 | Δ Ct ([4]; peptide 1000 nM): 1.05 | destruction of the lipid membrane of the virus (viral RNA degraded by RNase) [4]: destroyed the lipid membrane of the virus

HWWFEGVKWLGRVLELLY [SP-126, HWWFEGVKWLGRVLELLY]
leakage of the fluorescent substance encapsulated in the liposome [2]: leaked out of the liposome | Ct value ([4]; peptide 500 nM): 26.47 | Δ Ct ([4]; peptide 500 nM): 2.59 | Ct value ([4]; peptide 1000 nM): 27.07 | Δ Ct ([4]; peptide 1000 nM): 3.19 | destruction of the lipid membrane of the virus (viral RNA degraded by RNase) [4]: destroyed the lipid membrane of the virus

IIYQVIDELVNYFKKFLF [SP-254, IIYQVIDELVNYFKKFLF]
leakage of the fluorescent substance encapsulated in the liposome [2]: leaked out of the liposome | Ct value ([4]; peptide 500 nM): 24.44 | Δ Ct ([4]; peptide 500 nM): 0.76 | Ct value ([4]; peptide 1000 nM): 25.41 | Δ Ct ([4]; peptide 1000 nM): 1.73 | destruction of the lipid membrane of the virus (viral RNA degraded by RNase) [4]: destroyed the lipid membrane of the virus

ILDFFVGFIDWLVRYLNK [SP-046, ILDFFVGFIDWLVRYLNK]
Ct value ([4]; peptide 500 nM): 27.00 | Δ Ct ([4]; peptide 500 nM): 3.07 | Ct value ([4]; peptide 1000 nM): 28.79 | Δ Ct ([4]; peptide 1000 nM): 4.87 | destruction of the lipid membrane of the virus (viral RNA degraded by RNase) [4]: destroyed the lipid membrane of the virus | reduction of the level of cells infected by the virus [3]: reducing the level of cells infected by the virus

ILVRWLSHFFEYLDRFYT [SP-221, ILVRWLSHFFEYLDRFYT]
leakage of the fluorescent substance encapsulated in the liposome [2]: leaked out of the liposome | reduction of the level of cells infected by the virus [3]: reducing the level of cells infected by the virus

LIRFYHLFESIYKYIMDL [SP-030, LIRFYHLFESIYKYIMDL]
leakage of the fluorescent substance encapsulated in the liposome [2]: leaked out of the liposome | Ct value ([4]; peptide 500 nM): 25.17 | Δ Ct ([4]; peptide 500 nM): 1.24 | Ct value ([4]; peptide 1000 nM): 25.43 | Δ Ct ([4]; peptide 1000 nM): 1.51 | destruction of the lipid membrane of the virus (viral RNA degraded by RNase) [4]: destroyed the lipid membrane of the virus

QSFLDIVWSIIDIFKEFC [SP-004, QSFLDIVWSIIDIFKEFC]
Ct value ([4]; peptide 500 nM): 25.22 | Δ Ct ([4]; peptide 500 nM): 1.68 | Ct value ([4]; peptide 1000 nM): 26.65 | Δ Ct ([4]; peptide 1000 nM): 3.11 | destruction of the lipid membrane of the virus (viral RNA degraded by RNase) [4]: destroyed the lipid membrane of the virus | reduction of the level of cells infected by the virus [3]: reducing the level of cells infected by the virus

SFLDIVWSIIDIFKEFCK [SP-003, SFLDIVWSIIDIFKEFCK]
destruction of the lipid membrane of liposomes (decrease in the fluorescence value) [5]: lipid membrane of the liposomes labeled with a fluorescent substance was destroyed | Ct value ([6]; Conc. 7.81 nM): 24.15 | Ct value ([6]; Conc. 15.63 nM): 24.93 | Ct value ([6]; Conc. 31.25 nM): 26.01 | Ct value ([6]; Conc. 62.50 nM): 25.69 | Ct value ([6]; Conc. 125.00 nM): 34.14 | Ct value ([6]; Conc. 250.00 nM): 43.56 | Ct value ([6]; Conc. 500.00 nM): 45.00 | Ct value ([6]; Conc. 1000.00 nM): 45.00 | reduction of the amount of virus that infected the cells [6]: reducing the amount of virus that infected the cells compared to the negative control | reduction of the level of cells infected by the virus [3]: reducing the level of cells infected by the virus

SWKEIVNLLYELLASLIR [SP-101, SWKEIVNLLYELLASLIR]
destruction of the lipid membrane of liposomes (decrease in the fluorescence value) [5]: lipid membrane of the liposomes labeled with a fluorescent substance was destroyed | reduction of the level of cells infected by the virus [3]: reducing the level of cells infected by the virus

TLLRAVETLFSLWLEFMR [SP-139, TLLRAVETLFSLWLEFMR]
leakage of the fluorescent substance encapsulated in the liposome [2]: leaked out of the liposome | Ct value ([4]; peptide 500 nM): 24.79 | Δ Ct ([4]; peptide 500 nM): 0.90 | Ct value ([4]; peptide 1000 nM): 25.29 | Δ Ct ([4]; peptide 1000 nM): 1.41 | destruction of the lipid membrane of the virus (viral RNA degraded by RNase) [4]: destroyed the lipid membrane of the virus

TLYAFFLTLIREIVKGIE [SP-131, TLYAFFLTLIREIVKGIE]
leakage of the fluorescent substance encapsulated in the liposome [2]: leaked out of the liposome | Ct value ([4]; peptide 500 nM): 24.44 | Δ Ct ([4]; peptide 500 nM): 0.56 | Ct value ([4]; peptide 1000 nM): 24.98 | Δ Ct ([4]; peptide 1000 nM): 1.09 | destruction of the lipid membrane of the virus (viral RNA degraded by RNase) [4]: destroyed the lipid membrane of the virus

WSEILREFLNLISLIWSR [SP-110, WSEILREFLNLISLIWSR]
leakage of the fluorescent substance encapsulated in the liposome [2]: leaked out of the liposome | Ct value ([4]; peptide 500 nM): 27.10 | Δ Ct ([4]; peptide 500 nM): 3.05 | Ct value ([4]; peptide 1000 nM): 28.82 | Δ Ct ([4]; peptide 1000 nM): 4.77 | destruction of the lipid membrane of the virus (viral RNA degraded by RNase) [4]: destroyed the lipid membrane of the virus | reduction of the level of cells infected by the virus [3]: reducing the level of cells infected by the virus

YTSFVDVFFKIVDYLNKW [SP-115, YTSFVDVFFKIVDYLNKW]
leakage of the fluorescent substance encapsulated in the liposome [2]: leaked out of the liposome | Ct value ([4]; peptide 500 nM): 24.62 | Δ Ct ([4]; peptide 500 nM): 0.57 | Ct value ([4]; peptide 1000 nM): 25.32 | Δ Ct ([4]; peptide 1000 nM): 1.27 | destruction of the lipid membrane of the virus (viral RNA degraded by RNase) [4]: destroyed the lipid membrane of the virus

YVVTFVELVWNIIEKLLD [SP-290, YVVTFVELVWNIIEKLLD]
Δ Ct ([1]; 30 nM peptide): 0.97 | Ct value ([1]; 30 nM peptide): 22.05 | Δ Ct ([1]; 60 nM peptide): 2.01 | Ct value ([1]; 60 nM peptide): 22.24 | reduction of the amount of virus that infected the cells [1]: reducing the amount of virus that infected the cells compared to the negative control | leakage of the fluorescent substance encapsulated in the liposome [2]: leaked out of the liposome
